Data on 29 substances can be found in patent US6992169B2 (Cyclacel Limited, priority 1998, dated 2006).

The series can be described thus: general procedure: Fmoc solid-phase peptide synthesis; Fmoc-Lys(Boc)-[(4-(hydroxymethyl)phenoxyacetyl)-resin] (ABI 401425; 0.5 mmol/g) or Rink Amide AM resin (Novabiochem); FastMoc MonPrevPk programs; PyBOP/HOBt/DIEA for manual acylations.
Where [1] appears, read: whole synthesis, l=200-300 nm, scale of the general procedure 0.1 mmol or 0.25 mmol.
The mark [2] stands for this setting: conjugation step, analytical RP-HPLC, Vydac 218TP54.
Where [3] appears, read: whole synthesis, λ=214 nm, scale of the general procedure 0.1 mmol or 0.25 mmol.

Strings that start with PEPTIDE1 are HELM notation: dots part the residues, brackets hold end groups and non-standard residues. [ ]: non-standard residue; d: D form. βAla = NCCC(=O)O Some results are limits rather than exact numbers.

For the substance “{[4[N-(2,4-diamino-6-pteridinyl-methyl)-N-methylamino]benzoyl]-Glu-Gly-bAla}4-Lys2-Lys-bAla-Arg-Gln-Ile-Lys-Ile-Trp-Phe-Gln-Asn-Arg-Arg-Met-Lys-Trp-Lys-Lys-OH”, the “final HPLC purity” value under setting [1] is listed as “purity>99%”. Where the note is “whole synthesis, scale 0.025 mmol”, this substance showed a crude mass of 61 mg.
Substance “PEPTIDE1{C.R.Q.[Ile_bopen].K.[Ile_bopen].W.F.Q.N.R.R.M.K.W.K.K.[am]}|CHEM1{[SuccProp-4-Podo]}$PEPTIDE1,CHEM1,1:R3-1:R1$$$V2.0” registered a conjugation yield (conjugation step) of 69%. Also, the “final HPLC purity” value under setting [2] was “purity>98%”.
For the substance “O-(βAla-succinyl-βAla-Arg-Gln-Ile-Lys-Ile-Trp-Phe-Gln-Asn-Arg-Arg-Met-Lys-Trp-Lys-Lys-OH)bohemine (SEQ ID No. 20)”, the “final HPLC purity” value (whole synthesis, analytical RP-HPLC, Vydac 218TP54, scale of the general procedure 0.1 mmol or 0.25 mmol) was “purity>93%”.
Turning to “N-{3-[3-(H-Cys-Arg-Gln-Ile-Lys-Ile-Trp-Phe-Gln-Asn-Arg-Arg-Met-Lys-Trp-Lys-Lys-OH)succinimido]benzoyl}doxorubicin”, the “final HPLC purity” value (whole synthesis, l=214 nm, scale of the general procedure 0.1 mmol or 0.25 mmol) is reported as “purity>99%”. The substance also showed a crude mass (whole synthesis, scale 0.075 mmol) of 238 mg.
Consider H-C[βAla]RRMKWKK-NH2, for which the “final HPLC purity” value under setting [3] is “purity>95%”.
Where the note is “conjugation step”, “G3-[Succinimidopropionoyl-(H-Cys-Arg-Gln-Ile-Lys-Ile-Trp-Phe-Gln-Asn-Arg-Arg-Met-Lys-Trp-Lys-Lys-OH)]etoposide” came in with a conjugation yield of 79%. The “final HPLC purity” value under setting [2] is “purity>98%”.
On to “4-[Acetyl-(H-Cys-βAla-Arg-Arg-Met-Lys-Trp-Lys-Lys-NH2)]podophyllotoxin (SEQ ID No. 19)”, for which the conjugation yield (conjugation step) stood at 100%. Moreover, the “final HPLC purity” value under setting [2] is “purity>98%”.
Turning to “4-[Succinimidopropionoyl-(H-Cys-b-Ala-D-Arg-D-Arg-D-Met-D-Lys-D-Trp-D-Lys-D-Lys-NH2)]podophyllotoxin”, the conjugation yield (conjugation step) is given as 21%. Moreover, under setting [2], the “final HPLC purity” value is listed as “purity>98%”.
Where the note is “conjugation step”, “4′-Demethyl-4-[4″-aminoanilino-(succinimidopropionoyl)-(H-Cys-βAla-Arg-Arg-Met-Lys-Trp-Lys-Lys-NH2)]epipodophyllotoxin (SEQ ID No. 19)” displayed a conjugation yield of 97%. In addition, under setting [2], the “final HPLC purity” value is given as “purity>98%”.
Substance “4-[Succinimidopropionoyl-(H-Cys-Arg-Gln-Ile-Lys-Ile-Trp-Phe-Gln-Asn-Arg-Arg-Met-Lys-Trp-Lys-Lys-OH)]podophyllotoxin” showed a conjugation yield (conjugation step) of 35%. For the same substance, under setting [2], the “final HPLC purity” value was “purity>97%”.
As to “4-[Succinimidopropionoyl-(biotinamidocaproyl-βAla-Arg-Gln-Ile-Lys-Ile-Trp-Phe-Gln-Asn-Arg-Arg-Met-Lys-Trp-Lys-Lys-Gly-Cys-Gly-NH2)]podophyllotoxin”, the “final HPLC purity” value under setting [2] is recorded as “purity>97%”.
For the substance “Bis-[4-(succinimidopropionoyl)podophyllotoxin]-(H-Cys-Arg-Arg-Met-Lys-Trp-Lys-Lys-Cys-NH2)”, under “conjugation step”, the conjugation yield is listed as 32%. For the same substance, the “final HPLC purity” value under setting [2] is recorded as “purity>98%”.
Consider “4′-[Succinimidopropionoyl-(H-Cys-βAla-Arg-Arg-Met-Lys-Trp-Lys-Lys-NH2)]epipodophyllotoxin”, for which the conjugation yield (conjugation step) came to 63%. The “final HPLC purity” value under setting [2] is reported as “purity>98%”.
The matching figures for “4′-Demethyl-4-[acetyl-(H-Cys-βAla-Arg-Arg-Met-Lys-Trp-Lys-Lys-NH2)]epipodophyllotoxin (SEQ ID No. 19)”: 46% and “purity>98%”.
The like results for “10-O-[Succinimidopropionoyl-(H-Cys-Arg-Gln-Ile-Lys-Ile-Trp-Phe-Gln-Asn-Arg-Arg-Met-Lys-Trp-Lys-Lys-NH2)]camptothecin (SEQ ID No. 27)” were, in that order, 57% and “purity>98%”.
Regarding “4′-Demethyl-4-[acetyl-(H-Cys-Arg-Gln-Ile-Lys-Ile-Trp-Phe-Gln-Asn-Arg-Arg-Met-Lys-Trp-Lys-Lys-NH2)]epipodophyllotoxin (SEQ ID No. 27)”, the conjugation yield (conjugation step) is reported as 56%. Under setting [2], the “final HPLC purity” value is reported as “purity>96%”.
“4′-Methoxy-4-[4″-aminoanilino-(succinimidopropionoyl)-(H-Cys-βAla-Arg-Arg-Met-Lys-Trp-Lys-Lys-NH2)]epipodophyllotoxin (SEQ ID No. 19)” had a conjugation yield (conjugation step) of 49%. In addition, the “final HPLC purity” value under setting [2] was “purity>98%”.
Regarding “{[4[N-(2,4-Diamino-6-pteridinyl-methyl)-N-methylamino]benzoyl]-Glu-Gly-βAla}4-Lys2-Lys-βAla-Arg-Gln-Ile-Lys-Ile-Trp-Phe-Gln-Asn-Arg-Arg-Met-Lys-Trp-Lys-Lys-OH”, where the note is “whole synthesis, 200-300 nm, scale of the general procedure 0.1 mmol or 0.25 mmol”, the “final HPLC purity” value was “purity>99%”.
For “4-[Succinimidopropionoyl-(H-Cys-D-Arg-D-Gln-D-Ile-D-Lys-D-Ile-D-Trp-D-Phe-D-Gln-D-Asn-D-Arg-D-Arg-D-Nle-D-Lys-D-Trp-D-Lys-D-Lys-NH2)]podophyllotoxin”, the conjugation yield (conjugation step) is listed as 52%. The “final HPLC purity” value under setting [2] is listed as “purity>98%”.
Consider “2′-[Succinimidopropionoyl-(H-Cys-Arg-Gln-Ile-Lys-Ile-Trp-Phe-Gln-Asn-Arg-Arg-Met-Lys-Trp-Lys-Lys-NH2)]paclitaxel”, for which the conjugation yield (conjugation step) was 53%. Further, under setting [2], the “final HPLC purity” value was “purity>97%”.
Regarding “Biotinamidocaproyl-βAla-Arg-Gln-Ile-Lys-Ile-Trp-Phe-Gln-Asn-Arg-Arg-Met-Lys-Trp-Lys-Lys-Gly-Cys-Gly-NH2”, the “final HPLC purity” value under setting [3] is listed as “purity>99%”.
On to “[H-Glu-Gly-bAla]4-Lys2-Lys-bAla-Arg-Gln-Ile-Lys-Ile-Trp-Phe-Gln-Asn-Arg-Arg-Met-Lys-Trp-Lys-Lys-OH”, for which the “crude HPLC purity” value under setting [1] is above 89%.
Consider “4′-Demethyl-4-[succinimidopropionoyl-(H-Cys-Arg-Gln-Ile-Lys-Ile-Trp-Phe-Gln-Asn-Arg-Arg-Met-Lys-Trp-Lys-Lys-OH)]epipodophyllotoxin”, for which, where the note is “late stage modification step”, the step yield turned out to be 73%. Also, the “final HPLC purity” value (late stage modification step, analytical RP-HPLC, Vydac 218TP54) is “purity>99%”.
With “H-Cys-D-Arg-D-Gln-D-Ile-D-Lys-D-Ile-D-Trp-D-Phe-D-Gln-D-Asn-D-Arg-D-Arg-D-Nle-D-Lys-D-Trp-D-Lys-D-Lys-NH2”, the “final HPLC purity” value (whole synthesis, 214 nm, scale of the general procedure 0.1 mmol or 0.25 mmol) is “purity>99%”.
Regarding “4′-(Succinimidopropionoyl)epipodophyllotoxin-(H-Cys-Arg-Arg-Met-Lys-Trp-Lys-Lys-Cys-NH2)-2′-(succinimidopropionyl)paclitaxel (SEQ ID No. 21)”, the “final HPLC purity” value under setting [2] is reported as “purity>98%”.
“4′-(Succinimidopropionoyl)epipodophyllotoxin-(H-Cys-Arg-Arg-Met-Lys-Trp-Lys-Lys-Cys-NH2)-10-O-(succinimidopropionoyl)camptothecin (SEQ ID No. 21)”: the “final HPLC purity” value under setting [2] is given as “purity>96%”.
With “4′-Chloroacetyl-4-[succinimidopropionoyl-(H-Cys-Arg-Gln-Ile-Lys-Ile-Trp-Phe-Gln-Asn-Arg-Arg-Met-Lys-Trp-Lys-Lys-OH)]epipodophyllotoxin”, the conjugation yield (conjugation step) is given as 67%. Moreover, under setting [2], the “final HPLC purity” value is “purity>99%”.
In turn, “4′-[Succinimidopropionoyl-(H-Cys-Arg-Gln-Ile-Lys-Ile-Trp-Phe-Gln-Asn-Arg-Arg-Met-Lys-Trp-Lys-Lys-NH2)]epipodophyllotoxin” returned a conjugation yield (conjugation step) of 81%. The “final HPLC purity” value under setting [2] is “purity>98%”.
With “H-Cys-Arg-Gln-Ile-Lys-Ile-Trp-Phe-Gln-Asn-Arg-Arg-Met-Lys-Trp-Lys-Lys-NH2”, the “final HPLC purity” value under setting [3] was “purity>99%”.
